Laboratory results: the supplement of paper PMC3334620
Over roughly 33,000 sequences, “E-score (-0.5 to 0.5)” has its median near -0.0014; the highest 2% begin near 0.25. The list shows a part of the results.

Molecular target: T1, Cad1 (UniProt P24813)
T1 sequence: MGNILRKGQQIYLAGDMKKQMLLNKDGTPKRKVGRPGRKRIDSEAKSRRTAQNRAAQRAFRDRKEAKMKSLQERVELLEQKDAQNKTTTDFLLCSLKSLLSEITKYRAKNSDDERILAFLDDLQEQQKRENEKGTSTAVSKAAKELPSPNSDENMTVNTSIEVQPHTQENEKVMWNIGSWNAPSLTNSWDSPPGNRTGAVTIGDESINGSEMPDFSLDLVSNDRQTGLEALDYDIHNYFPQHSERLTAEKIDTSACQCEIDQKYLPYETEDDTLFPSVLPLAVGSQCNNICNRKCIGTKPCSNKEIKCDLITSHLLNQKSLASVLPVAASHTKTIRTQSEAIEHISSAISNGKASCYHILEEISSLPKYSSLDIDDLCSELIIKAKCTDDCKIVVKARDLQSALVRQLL
Assay: PBM E-score (8-mer binding enrichment) (E-score (-0.5 to 0.5)); higher = stronger / more preferred TF binding
Details: protein concentration: 100 nM; construct: GST-full length
In short: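 Universal all-10-mer Agilent arrays, double-stranded by primer extension on fresh or once-stripped slides, were probed with about 100-200 nM GST-tagged yeast transcription factors made by PURExpress. Fluorescent anti-GST detected bound protein, and masliner normalised the scans. E-scores from the Universal PBM Analysis Suite were given to each ungapped eight-base word pooled with its reverse complement.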

Sequence	PBM E-score
CCAAGTAA	0.189
GTGCCCAC	-0.127
CTTTTAGA	0.0604
TAATGAGA	0.198
CCTGGTCC	-0.189
CAAGTCTA	-0.0431
TAGGGCGA	-0.0704
GGCTCTCA	-0.184
CATACTTA	0.0592
AATCTGAC	-0.0425
AGTGATTA	0.287
CCCTCCGA	-0.00645
CGACTATC	0.0661
ATAGAAAT	0.138
ATCCCCAA	0.0632
AACACGCT	-0.0413
AATCATAC	0.0986
ACCGTCTA	-0.0285
GAGCACGC	-0.0437
AAAGTCGA	-0.0137
ACTCTAGC	-0.206
CTTTTCTC	0.00327
CTGTGTCC	-0.0935
TAGCCCTA	-0.125
ACTCGGTA	-0.129
AAGATCAG	-0.0875

Reformatted as comma-separated lines: part of the list above.
Sequence,PBM E-score
AAAGTCGA,-0.0137
ACTCTAGC,-0.206

In a second layout: results already given.

| Sequence | PBM E-score |
| --- | --- |
| TAGGGCGA | -0.0704 |
| CATACTTA | 0.0592 |
| AATCATAC | 0.0986 |
| AAAGTCGA | -0.0137 |
| AAGATCAG | -0.0875 |

Remaining list, next part.

Sequence	PBM E-score
CTCTGATA	0.0204
CGCGCAGC	0.103
CCTATTCG	-0.131
TGATGACA	0.138
GCCCGCTA	-0.198
CGAATTAC	0.0357
ACTTATGC	0.0932
GAGATATC	0.124
CGCCGTAG	0.141
CAAAACTC	0.0401
GGCGAACC	-0.0475
TCCCGCGA	0.0875
CACAAATA	0.259
GCGTCGCA	-0.0396
ACCAATAC	-0.106
TTAACAAA	0.0927
CGATACAA	0.0958
AGAGAGCA	-0.147
ACAATACA	0.0445
AGGGTGCG	-0.215
CGGGTCCA	-0.209
CCGCGCGG	0.417
CCACCAGC	0.0562
GACGCCGA	0.147
GCCGGGAC	-0.0972
AAGGCCAC	-0.0006

Sequence	PBM E-score
AGGAGCGG	-0.293
ATGCCACA	-0.0517
GGAGGTAC	-0.249
GAAACTGC	-0.218
CGAGTTCC	0.151
TAATCATA	0.226
CCCCATTC	-0.136
ATAGGGCA	-0.17
CCATACCG	0.124
AACAGCAT	0.0296
GCATGACC	-0.103
GACCGTCA	-0.0457
AGTTAACA	0.227
GTAAACAC	0.0828
CACTTTCA	-0.0209
TATGAATA	0.0654
AGTACCTA	0.00584
AGCGAACT	-0.0333
GACATATC	0.18
CAGAACAA	0.171
CCTCGAGC	0.193
AGCCAACG	-0.00425
ACGGGATA	0.127
ATAAGGTC	0.0363
AGTACTTA	-0.0184
CCCAGGAG	-0.311

Sequence	PBM E-score
CCAGGGCA	-0.112
GTGCTAAA	0.00617
ACCACTAC	-0.0541
CATAGCCG	0.161
CCCTCGAA	-0.239
GCAACTTA	0.135
GCTCCGCA	-0.0229
ATGCATTC	0.196
AATGACCA	0.0454
CGTGCACA	0.0473
AGTTCGAC	0.143
TCGGAAAA	0.224
AGTCAAAC	-0.142
GCAAACAA	0.108
ATCTTTGC	0.208
ACGTTTAA	0.0129
CTCGTTAA	-0.112
AATTCGGA	0.12
GGCGTCCA	0.0032
CAACGTTG	0.263
CGGATCAG	0.119
GATAAACA	0.0427
ACATAGGG	-0.125
GCTTTACA	0.0167
GGCAACTA	0.123
ACGGGTAT	0.00144

Sequence	PBM E-score
CAACATCG	0.0708
CAACCAGA	0.0341
AGCCTTGG	-0.11
CCCAGAAG	-0.215
AAGTGTCC	-0.104
AGAATACT	0.0925
AACTAGTA	0.102
CCCATTGA	-0.0726
GCCATCAC	-0.0652
ATGTATGA	0.195
GCACTCTA	0.044
CAACTAAA	0.102
AACGAGTT	-0.105
CAAGTAAC	-0.0682
CGAGGCTA	0.00656
GGCGTCAC	-0.0338
GGGCCCTA	-0.161
AACGAAAC	0.187
AAACTTTG	0.0979
GCTCCAAC	-0.0475
GTAACCTA	0.0751
AACATCTC	-0.0577
CTGAGCCA	-0.0756
TGAAAGCA	0.222
ACGATCAG	-0.0172
GCCATAAC	-0.0858

Sequence	PBM E-score
AAGCGCAC	0.0605
CAGGCGCC	0.049
GAGCACTC	0.00589
GGACACCA	0.0773
CTTGATAC	0.0152
ACGAGCTA	-0.0731
GAAATCCC	-0.147
GGTCTGGA	-0.144
ATGTTAAG	0.0835
TACTCATA	0.012
CTTCCACA	-0.0588
ATCGCCAC	0.182
AGGATTAC	0.0918
CCTAAAAC	-0.104
AGTGCACT	0.0106
CAGGTTGC	0.0768
GGCCACCC	-0.135
CCGGCTAG	-0.00514
GGGAGAAA	-0.151
GTGTATTA	0.247
GACCTATA	0.137
ACTGAACT	0.0418
AGGCTGCA	-0.008
AGCGGCCG	0.152
CGGCTTCC	-0.0843
AACCCTCA	0.00268

Reformatted with each value named: part of the list above
CCGGCTAG
  PBM E-score = -0.00514
GGGAGAAA
  PBM E-score = -0.151
GTGTATTA
  PBM E-score = 0.247
GACCTATA
  PBM E-score = 0.137

Next results follow.

Sequence	PBM E-score
GCGCTAGC	0.038
CGCAGCCC	0.0695
GGCCGACA	-0.0392
GGACAGCC	-0.0133
ATCTGGAG	-0.084
TAGGTTGA	0.0128
CCGTGTGC	-0.0553
GCAAGACC	0.0306
CCTTCGGC	-0.145
CACATTGG	0.0699
ATCAATCA	0.13
CGGCTGAA	-0.0881
AAATCACT	0.141
ACGCTCCT	-0.0254
CTGTCTCC	-0.102
TACAGGTA	-0.0331
CATCGCGG	0.189
ATGCCATG	0.115
TGCTGAAA	-0.0176
AGCGCATC	0.0309
GGCGCCCC	-0.173
CGAGACGA	0.0054
ATTAGGCA	-0.0653
AGGAATAT	0.191
GCTTGCAC	-0.00949
CCTATCAC	-0.0733

Sequence	PBM E-score
AAACCGGC	0.0007
TCTATGCA	0.0316
ACACTAAG	0.00509
CTGTACCA	-0.154
AATGCTGC	0.0933
CACGCGTA	0.124
ATGACGTG	0.117
GACCACGA	0.0423
ACGAAGCC	-0.146
GGCATTCA	-0.133
GCAGTGAC	0.0371
GTGCTAGA	-0.253
GGAAAAAC	0.141
AGCGCAAA	0.189
AACTAGAT	0.0841
GACGGCGC	-0.0139
CCCATACC	-0.0736
GAACATCC	0.193
TCCTTACA	0.00161
CGTCCTAC	-0.0724
AGACCAGG	-0.182
ATAGTAAT	0.217
AGTTACAA	0.0164
ATCTGGAA	-0.0375
CCGTACAC	0.0248
CAAGGGGG	-0.39

Sequence	PBM E-score
GCCACGCA	-0.0565
AAGTGTGA	-0.128
CCAGTTCC	0.0254
CGGCGGCA	0.0859
CGGCAGTC	-0.0443
TATAGCCA	0.126
ATACGTTG	-0.0524
CGCATCAC	-0.0751
ATCTCGCC	-0.0589
TCCGGCCA	-0.157
AAACCTTT	-0.167
AAAGATCT	-0.0667
TACTTATA	0.0796
CATGTCGA	0.134
TAATTTGA	0.106
CGTCAAAC	-0.0838
AACCGCTA	-0.126
CGCTGCGC	-0.0164
AAGTCGAA	-0.0588
ATCAATAA	0.186
GCTGTCCA	-0.0173
TCAGTCCA	-0.182
CTTTGAAA	0.116
AACCAATT	0.297
AAGCTAGT	0.125
CCAGTTTA	-0.0989

Sequence	PBM E-score
AACTTCTA	-0.118
TAATACCA	0.213
AGCGTCGG	0.0643
ACAGAGAG	-0.283
CCATGTTA	0.0237
AGCGATAG	-0.0389
CCTCGTAA	0.136
CGCAGGCG	-0.151
ACGAGACC	-0.00034
AGGACCTA	0.025
TAGGCGAA	-0.123
GCGGTCAC	-0.166
AGGTCACA	-0.217
AATGACAA	0.201
CAGGGCGG	-0.185
AACAACGA	0.105
ACTAGTGG	0.0192
AGTCTGTC	0.0174
AGAGACGG	0.0418
